Measured values as given in publication PMC11745951.
No constants are given. Whether binding was seen depends on the method and setting. In cells and extracts the contact can be indirect. Some results given as binding are weak or reduced against the parent protein; the word gives no strength.

Target: Heat shock protein 90α (Hsp90α) (human (endogenous in HepG2)) (UniProt P07900)
Assay: co-IP; Hsp90α immunoprecipitates from HepG2 cells: 1 μg antibody with 1000 μg protein extract, 4°C overnight, Protein A + G Magnetic Beads, blot for LXRα; cells treated with STA9090 or NB

binding: binds
B1: Liver X receptor α (LXRα) (protein, UniProt Q13133 1-447)
chain: MSLWLGAPVPDIPPDSAVELWKPGAQDASSQAQGGSSCILREEARMPHSAGGTAGVGLEAAEPTALLTRAEPPSEPTEIRPQKRKKGPAPKMLGNELCSVCGDKASGFHYNVLSCEGCKGFFRRSVIKGAHYICHSGGHCPMDTYMRRKCQECRLRKCRQAGMREECVLSEEQIRLKKLKRQEEEQAHATSLPPRASSPPQILPQLSPEQLGMIEKLVAAQQQCNRRSFSDRLRVTPWPMAPDPHSREARQQRFAHFTELAIVSVQEIVDFAKQLPGFLQLSREDQIALLKTSAIEVMLLETSRRYNPGSESITFLKDFSYNREDFAKAGLQVEFINPIFEFSRAMNELQLNDAEFALLIAISIFSADRPNVQDQLQVERLQHTYVEALHAYVSIHHPHDRLMFPRMLMKLVSLRTLSSVHSEQVFALRLQDKKLPPLLSEIWDVHE
